Measured values published in patent US20240358735A1, “THERAPEUTIC COMPOSITIONS AND RELATED METHODS” (BOYCE THOMPSON INSTITUTE FOR PLANT RESEARCH, INC., priority 2021, published 2024).

System: Cbr-cest-2 mutants
Experiment: Comparative metabolomics (HPLC-HRMS) of Cbr-cest-2 mutants versus wildtype C. briggsae (AF16)
Details: abundance of the metabolite in Cbr-cest-2 mutants compared to C. briggsae wildtype (AF16)

In order of falling “Cbr-cest-2 fold over WT (AF16), average of 4 repeats” value:
1. CCC(O)C(=O)OC[C@H]1O[C@@H](n2ccc3ccccc32)[C@H](OC(=O)c2ccccc2N)[C@@H](OP(=O)(O)O)[C@@H]1O (stereo partly drawn) [iglu#49]  0.006783
2. NCCc1ccc(O[C@@H]2O[C@H](COC(=O)c3ccc[nH]3)[C@@H](O)[C@H](OP(=O)(O)O)[C@H]2OC(=O)c2ccccc2N)cc1 [tyglu#34]  0.005294
3. C/C=C(\C)C(=O)O[C@H]1[C@H](OC(=O)c2ccccc2N)O[C@H](CO)[C@@H](O)[C@@H]1OP(=O)(O)O [angl#601]  0.005194
4. C/C=C(\C)C(=O)OC[C@H]1O[C@@H](Cc2ccc(C(O)CN)cc2)[C@H](OC(=O)c2ccccc2N)[C@@H](OP(=O)(O)O)[C@@H]1O (stereo partly drawn) [oglu#10]  0.00416
5. NCC(O)c1ccc(C[C@@H]2O[C@H](COC(=O)c3ccccc3)[C@@H](O)[C@H](OP(=O)(O)O)[C@H]2OC(=O)c2cccnc2)cc1 (stereo partly drawn) [oglu#24]  0.003362
6. O=C(OCC1OC(OC(=O)c2ccccc2)C(OC(=O)c2ccc[nH]2)C(OP(=O)(O)O)C1O)c1cccnc1 (stereo not drawn) [bzglu#12]  0.00312
7. Nc1ccccc1C(=O)OCC1OC(n2ccc3ccccc32)C(OC(=O)c2ccccc2)C(CP(=O)(O)O)C1O (stereo not drawn) [iglu#90]  0.002597
8. C/C=C(\C)C(=O)OC[C@H]1O[C@@H](OC(=O)c2ccccc2)[C@H](O)[C@@H](OP(=O)(O)O)[C@@H]1O [bzglu#201]  0.002391
9. NCCc1ccc(O[C@@H]2O[C@H](COC(=O)c3ccc(O)cc3)[C@@H](O)[C@H](OP(=O)(O)O)[C@H]2OC(=O)c2ccccc2N)cc1 [tyglu#35]  0.002264
10. Nc1ccccc1C(=O)O[C@@H]1O[C@H](COC(=O)c2cccnc2)[C@@H](O)[C@H](OP(=O)(O)O)[C@H]1OC(=O)c1cccnc1 [angl#30]  0.002059
11. C/C=C(\C)C(=O)O[C@H]1[C@H](Oc2ccc(CCN)cc2)O[C@H](CO)[C@@H](O)[C@@H]1OP(=O)(O)O [tyglu#701]  0.00121
12. C[C@H](CC(=O)OC[C@H]1O[C@@H](Oc2ccc(CCN)cc2)[C@H](OC(=O)c2ccccc2N)[C@@H](OP(=O)(O)O)[C@@H]1O)O[C@@H]1O[C@@H](C)[C@H](O)C[C@H]1O [tyglas#11]  0.001146
13. C/C=C(\C)C(=O)OCC1OC(OC(=O)c2cccnc2)C(OC(=O)c2ccccc2)C(OP(=O)(O)O)C1O (stereo not drawn) [nglu#3]  0.0005537
14. Nc1ccccc1C(=O)C[C@@H]1O[C@H](COC(=O)c2ccc(O)cc2)[C@@H](O)[C@H](OP(=O)(O)O)[C@H]1OC(=O)c1ccc(O)cc1 [angl#47]  0.0005489
15. CC(C)CC(=O)OC[C@H]1O[C@@H](OC(=O)c2ccccc2N)[C@H](OC(=O)c2cccnc2)[C@@H](OP(=O)(O)O)[C@@H]1O [angl#19]  0.0004475
16. CCC/C=C/C(=O)OCC1OC(OC(=O)c2cccnc2)C(OC(=O)c2cccnc2)C(OP(=O)(O)O)C1O (stereo not drawn) [nglu#7]  0.0002196
17. Nc1ccccc1C(=O)OCC1OC(n2ccc3ccccc32)C(OC(=O)c2ccccc2)C(OP(=O)(O)O)C1O (stereo not drawn) [iglu#65]  5.36E−05
18. Nc1ccccc1C(=O)O[C@@H]1[C@@H](OP(=O)(O)O)[C@H](O)[C@@H](CO)O[C@H]1n1ccc2ccccc21 [iglu#401, (2R,3R,4S,5R,6R)-5-hydroxy-6-(hydroxymethyl)-2-(1H-indol-1-yl)-4-(phosphonooxy)tetrahydro-2H-pyran-3-yl 2-aminobenzoate]  3.71E−05
